# From PubChem BioAssay AID2685 (National Center for Advancing Translational Sciences (NCATS), 2010)
# Where “and” joins values, the source holds several entries; their conditions need not be identical. Identical values can stand only once. The list shows a part of the results. The main result of the screen is listed elsewhere. These columns were measured beside it and carry no call. Compounds called inactive in the main read-out are mostly missing here. Potencies come from curve fits of mixed quality, noted in brackets.
# Test: qHTS Assay for Lipid Storage Modulators in Drosophila S3 Cells;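 for cell number change: cells counted by Cell Tracker Red CMTPX staining in the red channel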
# Conditions: BODIPY lipid droplet fluorescence, 18-24 h; for cell number change: measured here: cell count max response, cells fed with added oleic acid
# Summary of the method: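 Drosophila S3 cells got compounds at several concentrations plus oleic acid (400 uM solution). Laser-scanning cytometry with 488 nm excitation read lipid droplets at 500-530 nm and cells at 575-640 nm. Percent activity was relative to 20 uM Triacsin C.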
# [1] = measured here: lipid fluorescence (Fed channel) AC50, cells fed with added oleic acid
# [2] = measured here: cell number channel AC50, cells fed with added oleic acid
Compound,cell number change,AC50 [1],AC50 [2]
Cc1cccc(C)c1NC(=O)C1(NC(=O)C2CCC(=O)N2)CCCCC1 (stereo not given),25.5%,"0.461 µM [rising, full curve, poor fit]",–
O=C(NC1CCCC1)c1cc2c(ccc3ccccc32)o1,57.7%,–,"3.26 µM [rising, full curve]"
COc1ccc2cc(S(=O)(=O)NCCCN3CCOCC3)ccc2c1,8.25%,–,–
COc1cc(C(=O)NNC(=O)C2CC2)cc(OC)c1OC,–,"29.1 µM [falling, single point]",–
S=c1[nH]nc(-c2cccnc2)n1Cc1ccccc1,-29.4%,–,"0.82 µM [falling, full curve, poor fit]"
S=c1[nH]nc(-c2ccco2)n1/N=C/c1ccc(Cl)cc1,-27%,"8.2 µM [falling, partial curve]",–
Cc1cc(C(=O)NC2CCCCC2C)c2ccccc2n1 (stereo not given),-1.7%,–,–
O=C(/C=C/c1ccc([N+](=O)[O-])cc1)NNC(=O)C1CC1,49%,–,"20.6 µM [rising, single point]"
COc1ccc(C(=O)C2CCCN(C(=O)c3ccnn3C)C2)cc1OC (stereo not given),7.76%,–,–
COc1cccc2sc(N3CCN(C(=O)c4ccc([N+](=O)[O-])o4)CC3)nc12,-25%,–,"3.66 µM [rising, single point]"
COc1cc(OC)c(NC2=CC(=O)C(=O)c3ccccc32)cc1Cl,-47.2%,"7.31 µM [falling, partial curve]","2.91 µM [falling, full curve]"
Cc1ccc(N(C)/N=C/c2ccc(Cl)cc2Cl)nn1,-5.67%,–,"0.92 µM [rising, full curve, poor fit]"
CCOC(=O)c1c(NC(=O)C(C)S(=O)(=O)c2cn(CC)c3ccccc23)sc2c1CCCC2 (stereo not given),-22.6%,"0.92 µM [falling, full curve]",–
N#C/C(=C/c1ccc(N2CCCCC2)cc1)c1cccc(F)c1,-8.83%,"29.1 µM [falling, single point]",–
COc1ccccc1C(=O)NCC(=O)N/N=C/c1cc(Br)ccc1OC(=O)/C=C\c1ccco1,0.705%,–,–
Cc1cc(C)cc(NC2=NC3(CCCCC3)N=C(N)N2)c1,11.8%,"29.1 µM [falling, single point]",–
Cc1cc(C)c(C2=CC(=O)C[C@H](c3ccc4c(c3)OCO4)C2)c(C)c1,-24.1%,–,–
C#CCn1c(O)c(N=NC(=O)CNC(=O)/C=C/c2ccccc2)c2ccccc21,–,"29.1 µM [falling, single point]",–
Cn1c(C(=O)OCC(=O)NCc2ccco2)cc2sccc21,-19.6%,–,–
O=C(O)c1ccc(-n2cccc2/C=N\NC(=O)c2cc3cc(Br)ccc3o2)cc1,21.3%,"3.26 µM [rising, full curve]",–
Cc1ccc(OC(C)C(=O)N(Cc2cccs2)C2CCS(=O)(=O)C2)cc1C (stereo not given),16.1%,"14.6 µM [rising, single point]",–

Compound,cell number change,AC50 [1],AC50 [2]
COc1ccc(CCNC(=O)C2CC(=O)N(c3ccc(C)cc3)C2)cc1OC (stereo not given),32.6%,–,"0.00461 µM [rising, full curve, poor fit]"
CC(CC12CC3CC(CC(C3)C1)C2)NCc1ccccc1O (stereo not given),-21.2%,–,–
O=C(NCC(c1ccco1)N1CCOCC1)c1ccc([N+](=O)[O-])cc1 (stereo not given),-44.3%,–,"29.1 µM [falling, single point]"
O=C(CSc1ncn(-c2ccccc2)n1)Nc1nncs1,0.656%,"0.461 µM [rising, partial curve]",–
Cc1ccc(Cn2c(C(C)Nc3nc(-c4ccc(C)cc4)cs3)nc3cc(Cl)c(Cl)cc32)cc1 (stereo not given),45.8%,–,"8.2 µM [rising, partial curve]"
CCOc1cc(/C=C/c2cccc[n+]2C)ccc1O,16.3%,"0.411 µM [falling, single point]",–
COc1ccc(NC(=O)CCCn2cc([N+](=O)[O-])cn2)cc1,–,–,"3.26 µM [falling, single point]"
O=C(c1ccc2c(c1)OCO2)C1CCCN(C(=O)c2cnn(Cc3ccccc3)c2)C1 (stereo not given),-9.01%,"0.411 µM [rising, full curve, poor fit]",–
CCOc1ccc(Oc2nc(N(CC)CC)nc(N3CCOCC3)n2)nn1,44%,–,"5.8 µM [rising, partial curve, poor fit]"
O=C(Nc1nc(-c2cccc([N+](=O)[O-])c2)cs1)C(c1ccccc1)c1ccccc1,44.3%,–,"2.31 µM [rising, full curve, poor fit]"
Cc1cnc(NC(=O)C2=C(O)c3ccccc3S(=O)(=O)N2C)s1,-7.85% and 13.5%,"1.16 µM [falling, full curve] and 29.1 µM [rising, single point]",–
CCn1c(SCC(=O)NCCCN2CCCC2=O)nnc1-c1cccc(C)c1,-22.9%,"0.92 µM [falling, full curve]",–
COc1cc(C(=O)Nc2sc3c(c2C(=O)O)CCC3)cc(OC)c1OC,30.3%,–,"11.6 µM [rising, partial curve, poor fit]"
Cc1ccc(S(=O)(=O)NCc2ccco2)c(C)c1C,-2.86%,"0.00461 µM [rising, full curve, poor fit]",–
CCCN=C1NC(=O)C(CC(=O)NCCc2ccc(OC)c(OC)c2)S1 (stereo not given),25.7%,"0.291 µM [rising, full curve, poor fit]","0.259 µM [rising, full curve, poor fit]"
O=C(COC(=O)c1cc(-c2cccs2)nn1-c1ccccc1)Nc1cc([N+](=O)[O-])ccc1Cl,-13.3%,"0.58 µM [falling, partial curve]","0.92 µM [falling, full curve, poor fit]"
COc1ccc(-n2cc(C(=O)Nc3cc([N+](=O)[O-])ccc3OC)c3ccccc3c2=O)cc1,33.1%,"1.84 µM [rising, partial curve]","4.61 µM [rising, partial curve]"
CCOC(=O)CC(N)c1cccc([N+](=O)[O-])c1 (stereo not given),-37.7%,"0.116 µM [falling, full curve, poor fit]","0.13 µM [falling, full curve]"
COc1ccc(N(CC(=O)Nc2ccccc2C(=O)NCc2ccco2)S(C)(=O)=O)cc1,–,–,"1.64 µM [rising, partial curve]"
COc1ccccc1N1CCN(Cc2ccc(-c3ccccc3[N+](=O)[O-])o2)CC1,-14%,"14.6 µM [falling, single point]",–
O=C1NC(=O)C(c2cn(-c3ccccc3)nc2-c2ccc(F)cc2)N1 (stereo not given),72.1%,"29.1 µM [rising, single point]","29.1 µM [rising, single point]"

Compound,cell number change,AC50 [1],AC50 [2]
CCN(CC(=O)NCc1ccc(F)cc1)C(=O)CN1CCN(c2ccc(OC)cc2)CC1,23.6%,–,–
O=c1c2cc(N3CCOCC3)ccc2[nH]c(=S)n1Cc1ccccc1Cl,-9.56%,"0.731 µM [falling, full curve, poor fit]",–
O=C(Nc1ccc2c(c1)OCO2)c1cccc(S(=O)(=O)N2CCCC2)c1,118%,"0.651 µM [rising, single point]","0.82 µM [rising, single point]"
CCNC(=S)N1C2CCC1CC(NC(=O)NC1CCCCC1)C2 (stereo not given),-26.7%,"29.1 µM [falling, single point]","2.31 µM [falling, full curve, poor fit]"
O=C(NC1=NCCS1)c1cc(-c2ccc(-c3ccccc3)cc2)nc2ccccc12,-2.11%,–,–
O=C(Nc1ccc(Br)cc1)c1ccc(-n2cnnn2)cc1,9.58%,–,"0.103 µM [rising, full curve, poor fit]"
COc1ccc2[nH]cc(/C=C(/C#N)S(=O)(=O)c3ccccc3)c2c1,-15.8%,"16.4 µM [rising, single point]",–
CCOC(=O)NC(NCC(O)c1ccccc1)(C(F)(F)F)C(F)(F)F (stereo not given),12.4%,–,"3.26 µM [falling, single point]"
COCCNC(=O)C(c1ccc(C)cc1)N(CCOC)C(=O)CCC(=O)Nc1nccs1 (stereo not given),26.9%,–,–
Cn1c2ccccc2c(=O)c2c(O)cccc21,31.7%,–,–
CCCc1ccc(Oc2c(-c3ccc(O)c(C)c3O)n[nH]c2C)cc1,-71.8%,"29.1 µM [falling, single point]","29.1 µM [falling, single point]"
O=C(Nc1ncc([N+](=O)[O-])s1)c1ccco1,-37.6%,–,"18.4 µM [falling, single point]"
Cc1cc(-c2ccc(C)c(S(=O)(=O)N3CCN(c4ccc([N+](=O)[O-])cc4)CC3)c2)on1,11.3%,–,"0.259 µM [rising, full curve, poor fit]"
Cc1nnc(SCC(=O)Nc2sccc2C(N)=O)s1,1.87%,"0.58 µM [falling, full curve]",–
CC(Sc1nnc(C(F)(F)F)n1C)C(=O)NC(N)=O (stereo not given),1.23%,"0.731 µM [rising, single point]",–
COc1ccc(OCC(=O)Nc2cccc(-c3nc4ccccc4[nH]3)c2)cc1,-17.4%,–,–
COc1ccc(OCCC(=O)N2CCOCC2)cc1,3.69%,"3.26 µM [falling, partial curve]",–
Cn1c(=O)[nH]c2sc3c(c2c1=O)CC(C)(C)OC3,–,"0.116 µM [rising, partial curve, poor fit]",–
Cc1cccc(Nc2nc(N)nc(CN3CCN(C)CC3)n2)c1,3.59%,"5.17 µM [falling, single point]",–
COc1ccc(NC(=O)CN(C)C(=O)c2ccccc2SCC(=O)N2CCCC2)cc1,15.4%,–,–
